# Test results as given in doi:10.1101/2022.10.27.514150.
# Sequences of proteins named here, by UniProt entry; tags and fusion partners are left off. A change or cut given only in a name is not applied to a line headed by its entry. Residues count along the entry.
# UniProt Q16254, whole entry: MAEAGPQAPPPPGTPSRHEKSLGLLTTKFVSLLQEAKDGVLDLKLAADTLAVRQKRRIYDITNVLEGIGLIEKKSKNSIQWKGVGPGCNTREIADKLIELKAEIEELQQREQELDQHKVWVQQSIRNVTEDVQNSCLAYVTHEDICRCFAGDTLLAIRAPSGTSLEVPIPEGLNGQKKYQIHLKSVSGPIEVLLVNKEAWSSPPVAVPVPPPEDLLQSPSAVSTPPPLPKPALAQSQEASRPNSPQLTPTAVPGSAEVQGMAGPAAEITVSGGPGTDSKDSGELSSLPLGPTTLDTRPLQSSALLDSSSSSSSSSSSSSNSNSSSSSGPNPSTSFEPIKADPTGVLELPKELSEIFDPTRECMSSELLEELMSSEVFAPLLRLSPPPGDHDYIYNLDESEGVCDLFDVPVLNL
# UniProt Q14186, 199-350: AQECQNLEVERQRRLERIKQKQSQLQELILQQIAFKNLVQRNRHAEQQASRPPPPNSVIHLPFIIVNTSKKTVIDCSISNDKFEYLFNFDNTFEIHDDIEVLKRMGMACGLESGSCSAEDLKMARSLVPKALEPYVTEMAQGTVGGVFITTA
# Like-named read-outs stand apart in the source and are kept apart here. These are yes or no findings as the source states them, for the method shown. Binding seen in cells or lysates may run through a third protein. Some entries that bind do so weakly or less than the wild type. For some of these results: Tags and fused reporters may be left off the sequences shown.
# Tests used:
# [1] = biological target: T1, HA-ΔNp73α (UniProt O15350); assay: co-IP
# T1 sequence: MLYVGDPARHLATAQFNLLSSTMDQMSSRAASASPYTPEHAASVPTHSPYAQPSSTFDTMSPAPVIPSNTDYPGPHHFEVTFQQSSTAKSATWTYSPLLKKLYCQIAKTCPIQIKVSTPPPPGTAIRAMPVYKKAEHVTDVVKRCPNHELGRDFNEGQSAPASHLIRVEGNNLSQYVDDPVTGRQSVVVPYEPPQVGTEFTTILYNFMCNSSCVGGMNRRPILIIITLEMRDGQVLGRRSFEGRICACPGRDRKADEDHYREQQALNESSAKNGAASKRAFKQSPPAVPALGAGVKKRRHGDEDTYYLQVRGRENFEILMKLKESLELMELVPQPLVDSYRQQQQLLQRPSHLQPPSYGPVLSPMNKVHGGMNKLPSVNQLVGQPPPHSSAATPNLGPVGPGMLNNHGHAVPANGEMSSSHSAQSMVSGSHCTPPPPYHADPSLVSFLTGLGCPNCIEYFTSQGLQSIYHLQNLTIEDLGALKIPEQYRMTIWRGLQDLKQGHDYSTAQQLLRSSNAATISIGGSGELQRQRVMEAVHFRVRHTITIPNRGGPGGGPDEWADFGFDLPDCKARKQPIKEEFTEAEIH
# [2] = biological target: T1, HA-ΔNp73α; assay: co-IP; remark: listed apart in the source
# [3] = biological target: 6xHis-E2F4 (84-413) (human) (UniProt Q16254); assay: pull-down
# [4] = biological target: T2, endogenous ΔNp73α (HNC-136) (human (endogenous in HNC-136)) (UniProt O15350); assay: co-IP
# T2 sequence: T1 sequence
substance,measurement,setting,value
endogenous E2F4 (38HK) (from UniProt Q16254 1-413),binding,[1],binds
same,binding,[2],binds
GST-DP1(199-350) (from UniProt Q14186 199-350) (domain or fragment),binding,[3],binds
endogenous E2F4 (HNC-136) (from UniProt Q16254 1-413),binding,[4],binds
